In paper PMC9849303:
These are yes or no findings as the source states them, for the method shown. In cells and extracts the contact can be indirect. Some binding calls cover weakened binding; strength is not graded here.

By UniProt entry, the sequences of proteins in these tests, tags left out. Where a name states a change or a piece, a line headed by the entry shows the natural chain unless it says otherwise. Chains listed by the source or under a name are the forms on record and can include a tag or linker. Residues count along the entry.
UniProt P21333: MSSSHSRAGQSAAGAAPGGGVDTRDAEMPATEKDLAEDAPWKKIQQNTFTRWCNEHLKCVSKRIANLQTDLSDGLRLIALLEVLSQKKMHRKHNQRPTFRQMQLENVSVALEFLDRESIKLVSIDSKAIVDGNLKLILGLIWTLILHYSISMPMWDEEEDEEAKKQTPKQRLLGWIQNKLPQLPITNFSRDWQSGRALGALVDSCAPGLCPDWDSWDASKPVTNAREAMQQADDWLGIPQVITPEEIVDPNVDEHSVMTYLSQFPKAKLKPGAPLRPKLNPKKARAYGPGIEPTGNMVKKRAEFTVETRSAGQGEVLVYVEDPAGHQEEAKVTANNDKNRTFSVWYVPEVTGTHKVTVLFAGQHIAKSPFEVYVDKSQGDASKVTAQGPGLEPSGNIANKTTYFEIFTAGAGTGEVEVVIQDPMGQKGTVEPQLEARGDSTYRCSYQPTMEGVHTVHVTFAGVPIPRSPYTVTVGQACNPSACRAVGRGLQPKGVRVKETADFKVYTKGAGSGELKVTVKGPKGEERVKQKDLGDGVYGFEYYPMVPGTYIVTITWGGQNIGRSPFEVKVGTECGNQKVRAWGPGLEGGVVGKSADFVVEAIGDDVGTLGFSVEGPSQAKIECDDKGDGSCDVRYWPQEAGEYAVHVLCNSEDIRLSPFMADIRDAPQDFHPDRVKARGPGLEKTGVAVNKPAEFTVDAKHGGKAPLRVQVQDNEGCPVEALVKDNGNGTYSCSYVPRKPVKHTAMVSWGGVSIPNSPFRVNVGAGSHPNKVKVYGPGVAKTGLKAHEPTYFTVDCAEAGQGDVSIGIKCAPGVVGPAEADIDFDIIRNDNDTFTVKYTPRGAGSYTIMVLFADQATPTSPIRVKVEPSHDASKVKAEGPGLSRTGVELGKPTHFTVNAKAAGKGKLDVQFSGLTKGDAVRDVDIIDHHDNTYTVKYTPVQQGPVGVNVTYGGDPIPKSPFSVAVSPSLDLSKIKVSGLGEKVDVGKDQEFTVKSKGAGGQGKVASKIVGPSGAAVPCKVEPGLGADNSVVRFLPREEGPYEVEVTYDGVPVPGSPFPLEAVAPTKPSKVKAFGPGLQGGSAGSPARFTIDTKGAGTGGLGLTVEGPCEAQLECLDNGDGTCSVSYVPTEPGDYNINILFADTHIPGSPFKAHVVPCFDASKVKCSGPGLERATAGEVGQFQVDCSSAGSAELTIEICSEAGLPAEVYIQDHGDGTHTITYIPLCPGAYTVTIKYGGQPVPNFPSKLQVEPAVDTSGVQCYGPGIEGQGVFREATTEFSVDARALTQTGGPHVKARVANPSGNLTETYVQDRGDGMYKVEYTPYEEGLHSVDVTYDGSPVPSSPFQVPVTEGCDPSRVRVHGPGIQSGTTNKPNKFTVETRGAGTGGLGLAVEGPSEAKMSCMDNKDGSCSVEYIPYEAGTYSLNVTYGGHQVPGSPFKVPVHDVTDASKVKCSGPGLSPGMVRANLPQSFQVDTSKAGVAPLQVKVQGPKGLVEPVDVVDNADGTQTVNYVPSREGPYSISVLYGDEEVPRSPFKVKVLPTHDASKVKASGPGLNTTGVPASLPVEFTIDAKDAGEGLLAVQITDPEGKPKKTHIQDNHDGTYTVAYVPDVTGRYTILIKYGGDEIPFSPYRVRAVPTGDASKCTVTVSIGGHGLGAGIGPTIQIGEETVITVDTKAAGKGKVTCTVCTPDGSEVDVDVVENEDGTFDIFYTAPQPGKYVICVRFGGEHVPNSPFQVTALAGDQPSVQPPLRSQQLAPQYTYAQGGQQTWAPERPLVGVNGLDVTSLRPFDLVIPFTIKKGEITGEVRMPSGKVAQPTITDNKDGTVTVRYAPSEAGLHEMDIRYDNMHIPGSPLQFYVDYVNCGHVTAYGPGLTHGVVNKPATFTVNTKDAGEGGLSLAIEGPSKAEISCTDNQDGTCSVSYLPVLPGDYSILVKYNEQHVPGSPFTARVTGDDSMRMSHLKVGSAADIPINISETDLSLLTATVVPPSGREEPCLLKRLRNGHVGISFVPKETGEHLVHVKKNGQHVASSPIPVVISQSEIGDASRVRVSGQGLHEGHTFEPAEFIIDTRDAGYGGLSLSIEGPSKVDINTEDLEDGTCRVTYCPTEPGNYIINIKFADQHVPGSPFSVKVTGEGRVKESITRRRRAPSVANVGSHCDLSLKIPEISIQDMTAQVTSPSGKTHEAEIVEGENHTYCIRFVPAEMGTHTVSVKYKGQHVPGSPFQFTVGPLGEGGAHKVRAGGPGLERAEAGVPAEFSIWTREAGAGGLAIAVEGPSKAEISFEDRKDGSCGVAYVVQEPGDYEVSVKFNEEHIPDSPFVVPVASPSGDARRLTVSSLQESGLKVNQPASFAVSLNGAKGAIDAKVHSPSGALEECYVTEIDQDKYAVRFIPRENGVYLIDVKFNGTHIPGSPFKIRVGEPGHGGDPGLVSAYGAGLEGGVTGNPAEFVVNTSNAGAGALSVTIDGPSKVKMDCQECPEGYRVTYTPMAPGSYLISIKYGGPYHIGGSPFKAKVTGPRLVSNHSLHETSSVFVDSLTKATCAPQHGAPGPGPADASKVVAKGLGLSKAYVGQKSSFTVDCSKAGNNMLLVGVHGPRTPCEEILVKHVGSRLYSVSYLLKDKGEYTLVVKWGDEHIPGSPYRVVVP
GFP-TauMBD-CT (pEGFP-C1 Tau0N4R MBD-CT (157-383)) (P10636, residues 532-758): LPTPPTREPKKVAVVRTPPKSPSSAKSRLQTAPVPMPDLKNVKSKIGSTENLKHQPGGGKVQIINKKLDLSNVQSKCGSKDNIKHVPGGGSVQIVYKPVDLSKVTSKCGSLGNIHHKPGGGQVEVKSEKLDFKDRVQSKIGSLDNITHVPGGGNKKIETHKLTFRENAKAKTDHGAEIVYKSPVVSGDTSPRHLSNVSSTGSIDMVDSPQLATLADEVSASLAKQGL
GFP-4RTau (pEGFP-C1 Tau0N4R) (P10636-6, form named): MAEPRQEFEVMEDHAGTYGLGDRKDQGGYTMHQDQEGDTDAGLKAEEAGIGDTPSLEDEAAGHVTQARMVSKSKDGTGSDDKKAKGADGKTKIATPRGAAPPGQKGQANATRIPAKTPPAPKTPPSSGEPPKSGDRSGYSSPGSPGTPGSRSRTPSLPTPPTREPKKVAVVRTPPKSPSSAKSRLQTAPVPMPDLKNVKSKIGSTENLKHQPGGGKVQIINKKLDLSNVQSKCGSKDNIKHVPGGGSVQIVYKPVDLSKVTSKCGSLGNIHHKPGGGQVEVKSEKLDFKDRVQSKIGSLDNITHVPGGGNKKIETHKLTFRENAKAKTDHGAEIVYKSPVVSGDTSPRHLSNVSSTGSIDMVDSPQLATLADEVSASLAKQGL
GFP-TauNT (pEGFP-C1 Tau0N4R NT (1-156)) (P10636-6, form named): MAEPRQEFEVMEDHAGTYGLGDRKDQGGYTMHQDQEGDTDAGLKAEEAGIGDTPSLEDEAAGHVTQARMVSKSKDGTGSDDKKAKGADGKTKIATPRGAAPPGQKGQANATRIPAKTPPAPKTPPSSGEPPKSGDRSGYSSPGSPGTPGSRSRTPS

Target: myc-FLNA (pcDNA3-myc-FLNa WT) (UniProt P21333)
Assay: co-IP; myc-trap on lysates of N2a cells co-transfected with myc-FLNA and the GFP constructs, processed as for the GFP-trap; Tau detected by blot with the GFP antibody; n = 3

Row | binding | Substance
1 | binds | GFP-4RTau (pEGFP-C1 Tau0N4R) (from UniProt P10636-6 1-383)
2 | no binding | GFP-TauNT (pEGFP-C1 Tau0N4R NT (1-156)) (from UniProt P10636-6 1-156) (domain or fragment)
3 | binds | GFP-TauMBD-CT (pEGFP-C1 Tau0N4R MBD-CT (157-383)) (from UniProt P10636-6 157-383) (domain or fragment)
